At least one structure is not confirmed: it was looked up by name or label, or the drawing left a doubt.
Tested on: HuH-7:LX-2:ImKC triple co-culture
Experiment: Marker changes in triple co-culture in vitro liver disease model (steatosis, inflammation, fibrosis) after drug treatment
Format: cell-based, human (HuH-7, mouse (ImKC)
Details: hepatic steatosis (FFA), inflammation (FFA+LPS) or fibrosis (FFA+TGF-β1) induced; FIGS. 5 to 14
Protocol: After the cells were fixed for 1 hour for direct co-culture, a 0.4 μm pore size cell culture insert (Corning™) was positioned on top of a direct co-culture dish for indirect co-culture of the corresponding cells with an immortalized mouse Kupffer cell line (ImKC). The cell suspensions of the immortalized mouse Kupffer cell line (ImKC) were added to the positioned cell culture insert (Corning™) such that the number of cells per area was 15,000 cells/cm^2, and the cells were cultured in a CO2 incubator (Thermo Scientific™) under 37° C. and 5% CO2 conditions for 24 hours (FIG. 1).
The cell culture dishes for each experimental group shown in the following Table 3, which was cultured for 24 hours in a CO2 incubator (Thermo Scientific™) under 37° C. and 5% CO2 conditions at 24 hours before FFA treatment, were taken out, the cell culture medium was carefully discarded, and a co-culture medium including 1,000 μM FFA (oleic:palmitic molar ratio 2:1) was added thereto. […]
The absorbance of each cell culture treated with FM101 and the control material was measured in the same manner as in Experimental Example 3-1.
The absorbance of each cell culture treated with FM101 and the control material was measured in the same manner as in Experimental Example 3-2. […]

CC[C@H]1[C@@H](O)[C@@H]2[C@H](CC[C@]3(C)[C@@H]([C@H](C)CCC(=O)O)CC[C@@H]23)[C@@]2(C)CC[C@@H](O)C[C@@H]12 [OCA, Obeticholic Acid]
responsiveness of markers in triple co-culture cells on drug treatment, compared to directly co-cultured cells: higher responsiveness and more concentration-dependent responsiveness

From US20240010987A1, “IN VITRO LIVER DISEASE MODEL USING TRIPLE CO-CULTURE AND PREPARATION METHOD THEREOF” (FUTURE MEDICINE CO., LTD., priority 2020, published 2024)
